Results deposited as PubChem BioAssay AID1508597 (Cure First, 2020).

Test: 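Survival screen with siRNA in ovarian cancer cells derived from patients, with or without rucaparib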 (primary screen)
System: human ovarian carcinoma lines grown from tumours: OCI-P5x (papillary serous) and OCI-C5x (clear cell)
Knock-down reagent: siRNA pool against human genes, 1.25 pmol siRNA per well
Time to read-out: 72 h or 96 h, depending on the cell culture
Challenge: rucaparib 20 µM (about IC30) or vehicle, present until read-out
Rucaparib or vehicle: Rucaparib
Cell line: OCI-P5x (serous)
Measurement: 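Luminescent ATP-based viability assay read 72 or 96 h after transfection, depending on culture, given as normalised percent viability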
Direction: viability, normalised: higher = more viable cells remaining
Active means: 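a well counts as a hit if its normalised viability is under 80 percent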
Calls: active = viability under 80%; inactive = viability 80% or more
Shown is an unselected part of the about 2,100 reagents, in one setting of the screen. 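Calls flag viability under 80% in either arm, not effects specific to rucaparib; the reference for percent is not stated.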 Entries without a mark were called inactive. The record does not give: the 100% reference.

no.	target gene	technical replicate	viability, normalised (%)
1	PRPS2	1	83.5
2	PRPS2	2	80.1
3	PRPS2	3	65.7 (active)
4	USB1	1	60.8 (active)
5	USB1	2	69.3 (active)
6	USB1	3	62.5 (active)
7	PRDM13	1	37.5 (active)
8	PRDM13	2	51.7 (active)
9	PRDM13	3	47.8 (active)
10	GEN1	1	169
11	GEN1	2	169
12	GEN1	3	135
13	BRD10	1	51.1 (active)
14	BRD10	2	51.8 (active)
15	BRD10	3	48.7 (active)
16	EYA4	1	56.7 (active)
17	EYA4	2	59 (active)
18	EYA4	3	63.4 (active)
19	CHKB	1	100
20	CHKB	2	93.6
21	CHKB	3	108
22	MYSM1	1	50.5 (active)
23	MYSM1	2	62.9 (active)
24	MYSM1	3	69.7 (active)
25	SLC16A9	1	51.1 (active)
26	SLC16A9	2	48.1 (active)
27	SLC16A9	3	52.5 (active)
28	PYGO2	1	36.1 (active)
29	PYGO2	2	39.4 (active)
30	PYGO2	3	38 (active)
31	HIPK2	1	81.7
32	HIPK2	2	94.1
33	HIPK2	3	64.2 (active)

4 entries already listed, ordered by “viability, normalised (%)”, descending.
target gene	technical replicate	viability, normalised (%)
GEN1	1	169
GEN1	2	169
GEN1	3	135
PRDM13	3	47.8 (active)

Continued:
no.	target gene	technical replicate	viability, normalised (%)
34	VRK2	1	126
35	VRK2	2	152
36	VRK2	3	130
37	TBL1Y	1	68 (active)
38	TBL1Y	2	59.3 (active)
39	TBL1Y	3	72.2 (active)
40	PMS2P3	1	40.5 (active)
41	PMS2P3	2	52.2 (active)
42	PMS2P3	3	71.7 (active)
43	MAGI2	1	45.2 (active)
44	MAGI2	2	70.3 (active)
45	MAGI2	3	71.2 (active)
46	PARP16	1	48.2 (active)
47	PARP16	2	44.6 (active)
48	PARP16	3	48.7 (active)
49	CACNA1A	1	81.3
50	CACNA1A	2	56.5 (active)
51	CACNA1A	3	75.9 (active)
52	MAP2K5	1	93.5
53	MAP2K5	2	75.3 (active)
54	MAP2K5	3	75.9 (active)
55	MYC	1	40.8 (active)
56	MYC	2	46 (active)
57	MYC	3	52.8 (active)
58	PRMT1	1	48.7 (active)
59	PRMT1	2	42.5 (active)
60	PRMT1	3	48.7 (active)
61	MAPK4	1	103
62	MAPK4	2	95.6
63	MAPK4	3	99.3
64	PRDM2	1	48 (active)
65	PRDM2	2	58 (active)
66	PRDM2	3	45 (active)
67	PHKA1	1	118
68	PHKA1	2	103
69	PHKA1	3	81.8
70	SRPK2	1	91.3
71	SRPK2	2	89.3
72	SRPK2	3	86.7
73	MLLT6	1	60.6 (active)
74	MLLT6	2	61.5 (active)
75	MLLT6	3	56.7 (active)
